Sequences of proteins named here, by UniProt entry; tags and fusion partners are left off.
UniProt Q14974, whole entry: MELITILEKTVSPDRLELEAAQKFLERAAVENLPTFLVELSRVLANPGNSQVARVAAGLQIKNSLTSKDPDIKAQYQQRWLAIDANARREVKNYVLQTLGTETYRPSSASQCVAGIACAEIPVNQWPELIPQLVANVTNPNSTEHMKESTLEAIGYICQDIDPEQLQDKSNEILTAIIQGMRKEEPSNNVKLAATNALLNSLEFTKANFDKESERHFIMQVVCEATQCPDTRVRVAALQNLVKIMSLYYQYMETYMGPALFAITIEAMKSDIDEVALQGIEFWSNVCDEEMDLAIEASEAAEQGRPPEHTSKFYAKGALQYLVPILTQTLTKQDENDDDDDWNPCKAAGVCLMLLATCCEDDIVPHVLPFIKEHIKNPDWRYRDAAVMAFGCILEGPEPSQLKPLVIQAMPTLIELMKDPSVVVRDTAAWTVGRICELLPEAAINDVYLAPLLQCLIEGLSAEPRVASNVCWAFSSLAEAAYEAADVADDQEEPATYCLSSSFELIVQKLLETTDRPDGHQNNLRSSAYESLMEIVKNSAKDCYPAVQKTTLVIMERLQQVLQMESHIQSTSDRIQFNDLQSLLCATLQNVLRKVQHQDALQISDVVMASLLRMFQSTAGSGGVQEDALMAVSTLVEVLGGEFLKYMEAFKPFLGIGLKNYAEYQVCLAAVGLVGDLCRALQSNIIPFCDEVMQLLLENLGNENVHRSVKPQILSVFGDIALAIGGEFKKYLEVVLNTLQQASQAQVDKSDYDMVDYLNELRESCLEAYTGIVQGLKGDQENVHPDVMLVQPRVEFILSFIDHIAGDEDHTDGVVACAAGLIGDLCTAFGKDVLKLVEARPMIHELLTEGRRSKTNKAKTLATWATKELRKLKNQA
UniProt O95149, whole entry partner: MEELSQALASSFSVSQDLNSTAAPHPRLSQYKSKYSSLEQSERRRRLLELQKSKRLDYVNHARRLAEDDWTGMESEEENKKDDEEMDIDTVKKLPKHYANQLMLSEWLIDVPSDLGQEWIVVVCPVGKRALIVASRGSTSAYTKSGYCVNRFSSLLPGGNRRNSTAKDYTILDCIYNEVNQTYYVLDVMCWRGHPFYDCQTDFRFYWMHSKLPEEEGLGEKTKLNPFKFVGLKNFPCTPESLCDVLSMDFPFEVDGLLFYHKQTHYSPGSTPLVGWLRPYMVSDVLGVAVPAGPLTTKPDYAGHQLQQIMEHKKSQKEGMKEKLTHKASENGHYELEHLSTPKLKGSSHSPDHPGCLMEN

Among all 340,000 compounds or so, about 100 (0.029%) were called active. Only results without a clear call are listed here; the source files them as inconclusive. The call rests on the fitted dose curve. Some of these compounds have results that are not shown, active ones among them.
Each compound was assayed against Importin subunit beta-1 (Homo sapiens) (UniProt Q14974) (assay: qHTS Assay for Inhibitors of Rango (Ran-regulated importin-beta cargo) - Importin beta complex formation). Conditions: Rango CFP/YFP FRET sensor + importin beta, 45 min.
Source text: NIH Molecular Libraries Probe Production Centers Network [MLPCN] NIH Chemical Genomics Center [NCGC] MLPCN Grant: R03 MH090808-01A1 Assay Submitter (PI): Petr Kalab NCGC Assay Overview: The small GTPase Ran regulates transport of macromolecules between the nucleus and the cytoplasm (nuclear transport) and has important functions in mitotic spindle assembly, nuclear envelope (NE) formation and nuclear pore complex (NPC) assembly. RanGTP gradient is thought to promote spindle assembly by providing a spatial clue to microtubule nucleation and Aurora A activation. Because the localized release and binding of importin alpha cargo relays this spatial clue to SAFs, inhibitors of the Rango - importin beta complex can then be used in further understanding their role in cell cycle specifically in mitosis progression. […] The assay used a fluorescence resonance energy transfer (FRET) Rango biosensor that contains the IBB of human snurportin 1 flanked by yellow fluorescent protein (EYFP) at the amino terminus and cerulean CFP10 at the carboxy terminus. […] FRET readings were obtained at two time points. FRET reading prior to importin beta addition (pre-read) were used flag potential compound interference; FRET reading after importin beta addition (post-read) were used to identify inhibitors using the FRET ratio parameter. […]
In the case of `O=C(NCC1(N2CCCCC2)CCCCC1)c1cccc(Cl)c1`, the Potency is reported as inconclusive: 126 µM.

Source: PubChem BioAssay AID540263 (National Center for Advancing Translational Sciences (NCATS), 2011)
Further: nearly all actives have a fitted effect of over 15% in size.
Potency means the concentration at half of the fitted maximal effect.
